This note sets out measurements from PMC12670160, “A drug-repurposing screen of FDA- and EMA-approved drugs identifies two NF-κB inhibitors active against eumycetoma” (Journal of Antimicrobial Chemotherapy, 2025).

Where a name gives a salt, the structure may show the parent alone. The whole screen tested about 5,300 compounds, of which about 130 (2.5%) showed an effect of 50% or more. The list shows a part of the results.

For this test, the system named is M. mycetomatis strain mm55. Conditions: primary screen, metabolic activity vs growth control; 96 h, 2 µM; inhibitor.
For `C[C@@H]1CN(c2c(F)c(N)c3c(=O)c(C(=O)O)cn(C4CC4)c3c2F)C[C@H](C)N1` [ONC0004146, sparfloxacin], the “% viability” value turned out to be 88.73%.
Take `O=C(O)c1cc(Oc2ccc([N+](=O)[O-])cc2)cc(Oc2ccc([N+](=O)[O-])cc2)c1` [ONC0001385, compoundw]: the “% viability” value is listed as 134.4%.
To `CC12CCC(C(Br)C1=O)C2(C)C` (stereo not drawn) [ONC0003727, 3bromocamphor] belongs 127.8%; to `Cc1c(F)cccc1NC(=O)Nc1ccc(Cl)c(S(=O)(=O)[C@H]2CCCNC2)c1O` [ONC0001291, danirixin], 52.88%.
To `C[C@@H]1O[C@@H]1P(=O)(O)O` [ONC0000648, fosfomycin calcium] belongs 118.9%; to `O=c1n(CC2CO2)c(=O)n(CC2CO2)c(=O)n1CC1CO1` (stereo not drawn) [ONC0002836, triglycidyl isocyanurate], 92.06%; to `COc1cc(N)cn[n+]1-c1ccccc1` [ONC0002799, amezinium methyl sulfate], 109%.
As for `CC(C)(O)c1ccn2c(-c3ccc(F)c(-c4ccc(F)cc4C#N)c3)cnc2c1F` [ONC0001920, tp003], the “% viability” value is listed as 78.09%.
In the case of `CCOC(=O)c1c(C)[nH]c2ccc3c(c12)CN1CCc2cc(OC)ccc2C1O3` (stereo not drawn) [ONC0001638, pd102807], the “% viability” value stood at 90.28%.
Regarding `Cc1nnc2ccc(-c3cccc(C(F)(F)F)c3)nn12` [ONC0002575, cl218872], the “% viability” value came to 65.35%.
As for `FC(F)(F)c1cc(CO[C@H]2CCCN[C@H]2c2ccccc2)cc(C(F)(F)F)c1` [ONC0001523, l733060], the figure is 91.91%; as for `O=[N+]([O-])c1cc(Cl)ccc1S(=O)(=O)c1ccccc1` [ONC0003098, btb1], 84.2%; as for `Cc1ccc(S(=O)(=O)NCl)cc1` [ONC0003893, chloraminet], 82.8%.
As for `CC#CCOC(=O)c1c(C)nc2sc3c(c2c1N)CCC(O)C3` (stereo not drawn) [ONC0001446, sb205384], the figure is 87.2%.
On to `C#C[C@]1(O)C=C[C@H]2[C@@H]3CCC4=CC(=O)CC[C@@H]4[C@H]3CC[C@@]21CC` [ONC0004807, gestodene], for which the “% viability” value stood at 85.89%.
To `N#CN=C(NCCCCCCOc1ccc(Cl)cc1)Nc1ccncc1` [ONC0001039, chs828] belongs 89.53%; to `CCOC(=O)C1CN(Cc2ccccc2)C(=O)C1=O` (stereo not drawn) [ONC0000018, ebpc], 104.8%; to `CCCCCCCCCCC(C)(C)C(=O)Nc1c(OC)cc(OC)cc1OC` [ONC0004485, ci976], 111.3%.
Regarding `CCn1c(=O)[nH]c2ccccc21` [ONC0002686, 1ebio], the “% viability” value was 68.57%.
As for `CCC1=C[C@@H]2CN(C1)Cc1c([nH]c3ccccc13)[C@@](C(=O)OC)(c1cc3c(cc1OC)N(C)[C@H]1[C@@](O)(C(=O)OC)[C@H](OC(C)=O)[C@]4(CC)C=CCN5CC[C@]31[C@@H]54)C2` [ONC0001957, vinorelbine ditartrate], the “% viability” value turned out to be 90.72%.
To `O=C(O)C1=CCNCC1` [ONC0002998, isoguvacine] belongs 69.52%.
To `CS(=O)(=O)Nc1ccc([N+](=O)[O-])cc1Oc1ccccc1` [ONC0002874, nimesulide] belongs 89.15%.
With `COc1cc(C)nc(-n2nc(C)cc2OC)n1` [ONC0002327, epirizole], the “% viability” value came out at 79.36%.
Take `CCn1cc(C(=O)O)c(=O)c2cc(F)c(N3CCNC(C)C3)c(F)c21` (stereo not drawn) [ONC0000681, lomefloxacin hydrochloride]: the “% viability” value amounted to 124.2%.
To `C[C@H](N)C(=O)O` [ONC0002657, lalanine] belongs 104.9%; to `N[C@@H](CN1C=CC(=O)C(=O)C1)C(=O)O` [ONC0002117, lmimosine], 76.12%; to `C=CC(=O)Nc1cccc(Nc2nc(Nc3ccc(NC4CN(CCF)C4)cc3OC)ncc2C(F)(F)F)c1` [ONC0000789, cnx2006], 96.85%.
For `c1ccc2c(Oc3nc(Nc4ccc(N5CCOCC5)cc4)c4ncn(C5CCCCC5)c4n3)cccc2c1` [ONC0004354, purmorphamine], the “% viability” value was 98.51%.
To `N#Cc1ccc(Cn2cncc2CN2CCN(c3cccc(Cl)c3)C(=O)C2)cc1` [ONC0000972, l778123 hydrochloride] belongs 78.78%; to `Nc1ncnc2nc(-c3ccc(N4CCOCC4)nc3)cc(-c3cccc(Br)c3)c12` [ONC0001326, abt702], 121.8%.
As for `C=CCn1c(=O)n([C@@H]2O[C@H](CO)[C@@H](O)[C@H]2O)c2nc(N)[nH]c(=O)c21` [ONC0005331, rwj21757], the figure is 124.9%.
As for `C[C@]12C=CC(=O)C=C1CC[C@@H]1[C@@H]2C(=O)C[C@@]2(C)[C@H]1CC[C@]2(O)C(=O)CO` [ONC0000521, prednisone], the figure is 76.96%.
Turning to `COc1cc(NC(=O)c2ccc(-c3ccc(Cl)cc3)o2)cc(OC)c1` [ONC0004499, a803467], the “% viability” value stood at 65.53%.
To `CCOC(=O)CCC(=O)O[C@H]1[C@H](O[C@@H]2[C@@H](C)[C@H](O[C@H]3C[C@@](C)(OC)[C@@H](O)[C@H](C)O3)[C@@H](C)C(=O)O[C@H](CC)[C@@](C)(O)[C@H](O)[C@@H](C)C(=O)[C@H](C)C[C@@]2(C)O)O[C@H](C)C[C@@H]1N(C)C` [ONC0000705, erythromycin ethylsuccinate] belongs 80.07%.
As for `CC(=O)OC[C@H]1O[C@@H](n2ccc(=O)[nH]c2=O)[C@H](OC(C)=O)[C@@H]1OC(C)=O` [ONC0003688, 235trioacetyluridine], the “% viability” value is reported as 61.4%.
To `Cc1cc(NC(=O)C2C(=O)c3ccccc3S(=O)(=O)N2C)no1` (stereo not drawn) [ONC0002885, isoxicam] belongs 123.7%; to `COc1cc2nccc(Oc3ccc(NC(=O)Nc4ccc(F)cc4F)c(F)c3)c2cc1OC` [ONC0003524, ki8751], 129%.
To `C#CC1(OCC(O)CN2CCN(c3cccc(C(F)(F)F)c3)CC2)CCCCC1` (stereo not drawn) [ONC0002373, terciprazine] belongs 68.7%.
As for `CNC(=O)c1ccc2c(c1)CCO[C@H]2CCN1CCN(c2ccc(C(N)=O)cc2)CC1` [ONC0003033, pnu142633], the figure is 68.66%; as for `CN1CCN(C2=Nc3ccccc3Sc3ccc(Cl)cc32)CC1` [ONC0005479, clothiapine], 75.75%.
As to `CC(CC(C(N)=O)(c1ccccc1)c1ccccc1)N(C)C` (stereo not drawn) [ONC0004171, aminopentamide], the “% viability” value amounted to 131.7%.
Regarding `CC(C)(F)C[C@H](N[C@@H](c1ccc(-c2ccc(S(C)(=O)=O)cc2)cc1)C(F)(F)F)C(=O)NC1(C#N)CC1` [ONC0004613, odanacatib mk 0822], the “% viability” value is 90.81%.
`COc1cc(-n2c(S)nc3ccccc3c2=O)c(Cl)cc1Cl` [ONC0004315, mdivi1]: the “% viability” value came to 127.2%.
In the case of `COc1cc(C)c(/C=C/C(C)=C/C=C/C(C)=C/C(=O)O)c(C)c1C` [ONC0004851, acitretin], the “% viability” value is 180.9%.
Take `CCCCCCCCCCCCCCCCCC(=O)OCC(O)CO` (stereo not drawn) [ONC0002777, monostearin]: the “% viability” value came to 78.83%.
Turning to `CCCCCCCCCCCCCCC[C@@H](O)[C@@H](N)CO` [ONC0003442, dihydrosphingosine derythro], the “% viability” value is 75.68%.
As for `OB1OCc2cc(Cl)ccc21` [ONC0003781, an2718], the “% viability” value worked out at 116%.
Consider `CCN1C(=O)CNc2ncc(-c3ccc(-c4nc[nH]n4)nc3C)nc21` [ONC0001188, cc115], for which the “% viability” value is 73.45%.
As for `O=C(Nc1ccc2[nH]ccc2c1)c1ccccc1` [ONC0001160, oac2], the figure is 142.5%; as for `Nc1ccc(C(=O)Oc2ccccc2)c(O)c1` [ONC0003304, phenyl aminosalicylate], 56.4%.
As for `CNNCc1ccc(C(=O)NC(C)C)cc1` [ONC0004216, procarbazine hydrochloride], the figure is 81.22%; as for `C/C(=N\NC(=S)N1CCC1)c1ccccn1` [nsc319726], 6.057%.
Regarding `O=c1[nH]c(=O)n([C@H]2C[C@H](O)[C@@H](CO)O2)cc1F` [ONC0002845, floxuridine], the “% viability” value is given as 24.01%.
For the compound `NCCCCN(Cc1nc2ccccc2[nH]1)[C@H]1CCCc2cccnc21` [ONC0002033, mavorixafor trihydrochloride], the “% viability” value came to 63.73%.
Take `O=C1c2cccc(O)c2C(=O)c2c(O)cc(CO)cc21` [ONC0005000, aloeemodin]: the “% viability” value is recorded as 68.32%.
As for `CN(C)CCC=C1c2ccccc2C=Cc2ccccc21` [ONC0003091, cyclobenzaprine hydrochloride], the figure is 81.71%; as for `CN(C)CCc1c[nH]c2ccc(C[C@H]3COC(=O)N3)cc12` [ONC0004042, zolmitriptan], 92.03%; as for `CCCCCCCCCCCCCCCC(=O)OC[C@H](O)[C@H]1OC(=O)C(=O)C1O` (stereo partly drawn) [ONC0004072, ascorbyl palmitate], 135.5%.
Regarding `COc1ccc(-c2noc(CC(=O)O)c2-c2ccc(OC)cc2)cc1` [ONC0005478, mofezolac], the “% viability” value turned out to be 125.7%.
Take `CC(=O)N[C@@H](CSSC[C@H](NC(C)=O)C(=O)O)C(=O)O` [ONC0002807, nnü¾Œ“ ¼ü¾˜³ ¼diacetyllcystine]: the “% viability” value is reported as 85.92%.
As for `O=C(NC1CCOCC1)c1ccc(-c2cc(-c3c[nH]nc3-c3ccccn3)ccn2)cc1` [ONC0005212, gw788388], the figure is 130.8%; as for `O=C1C(=O)N(Cc2ccc(Cl)c(Cl)c2)c2ccccc21` [ONC0000172, apoptosisactivatorii], 78.29%.
Regarding `NS(=O)(=O)c1cc2c(cc1Cl)NCNS2(=O)=O` [ONC0000531, hydrochlorothiazide], the “% viability” value came out at 101.6%.
